The target of assay [1] is T1, Hemagglutinin (HA)-tagged Necdin (HA-Necdin) (UniProt P25233).
T1 sequence: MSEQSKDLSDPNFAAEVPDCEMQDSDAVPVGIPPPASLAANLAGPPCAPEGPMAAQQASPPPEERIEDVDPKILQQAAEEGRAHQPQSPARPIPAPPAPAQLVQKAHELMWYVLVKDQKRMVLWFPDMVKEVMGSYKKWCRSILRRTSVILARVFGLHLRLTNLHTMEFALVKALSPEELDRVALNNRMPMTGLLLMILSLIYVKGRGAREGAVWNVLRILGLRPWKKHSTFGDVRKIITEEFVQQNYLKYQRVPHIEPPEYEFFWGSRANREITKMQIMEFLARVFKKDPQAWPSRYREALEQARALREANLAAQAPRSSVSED
The assay can be described thus: co-IP; lysates of 293T cells co-expressing FLAG-Gα constructs and HA-Necdin; precipitated with anti-Necdin antibodies; blots with anti-FLAG and anti-Necdin.

The chains behind the UniProt entries cited, without tags or fusion partners. Where a name states a change or a piece, a line headed by the entry shows the natural chain unless it says otherwise.
UniProt P59215: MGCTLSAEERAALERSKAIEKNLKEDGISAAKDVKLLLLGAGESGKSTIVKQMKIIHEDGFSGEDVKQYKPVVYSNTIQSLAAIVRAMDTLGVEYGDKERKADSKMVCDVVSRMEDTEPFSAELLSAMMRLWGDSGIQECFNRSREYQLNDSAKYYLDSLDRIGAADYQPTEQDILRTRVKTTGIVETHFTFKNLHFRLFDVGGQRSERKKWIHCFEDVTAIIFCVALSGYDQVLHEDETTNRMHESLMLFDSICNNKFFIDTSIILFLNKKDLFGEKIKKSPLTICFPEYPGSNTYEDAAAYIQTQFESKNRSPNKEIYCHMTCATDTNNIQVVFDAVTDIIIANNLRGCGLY

Assay [2] deals with T2, Glutathione-S-transferase (GST)-tagged Necdin (GST-Necdin) (UniProt P25233).
T2 sequence: T1 sequence
Briefly: pull-down; purified His-Gαo (600 nM) pre-incubated with 30 μM GDP and AlF4- (10 mM NaF, 30 μM AlCl3) 1 h at 30°C in HEMNDL buffer pH 8.0, 150 mM NaCl; GST-Necdin (200 nM) added, 20 min at 20°C; captured on glutathione-Sepharose 4B beads 1 h at 4°C; blots with anti-Gαo and anti-Necdin; both purified.

The next assay has as its target Wild type of Gαo (GαoWT) (UniProt P59215). Briefly: co-IP; lysates of 293T cells co-transfected with GαoWT or GαoQ205L and FLAG-Necdin; precipitated with anti-Gαo (or anti-FLAG); blots with anti-FLAG and anti-Gαo; PBTX buffer.
In assay [3] the target is Constitutively activated mutant of Gαo (GαoQ205L) (UniProt P59215). The assay is described as above.
In another assay the target is GST-Gαo (UniProt P59215). Briefly: pull-down; GST-Gαo on glutathione-Sepharose 4B beads; 293T cell extract (500 μg) expressing FLAG-Necdin; 1 h at 37°C in PBTX buffer; blot with anti-FLAG; only the target purified.

Results are given in words; binding and its absence hold for the method and conditions named. For some assays here: In cells and extracts the contact can be indirect. Some binding calls cover weakened binding; strength is not graded here. Where a sequence is shown, tags or fusion partners need not be part of it.

For FLAG-Gαo (from UniProt P59215 1-354), the binding entry in assay [1] is recorded as “binds”.

In the case of His-Gαo (from UniProt P59215 1-354), the binding result in assay [2] is given as “binds”.

B1: FLAG-tagged Necdin (FLAG-Necdin) (protein, UniProt P25233 1-325)
chain: T1 sequence
Consider B1, for which the binding entry (with Wild type of Gαo (GαoWT); in assay [3]; with GST-Gαo) was “binds” throughout.

For the origin of these results see PMC4227020.
